# According to the supplement of paper PMC11438910:
# Some of the results follow. The signal is at background level for most entries.
# B1: 4-80.4 (protein)
# chain 1: QVQLQESGPGLVKPSETLSLTCAVSGGSFSSYWWSWIRQSPGKGLEWIGEISGNSGSTNYNPSLKSRVTISKDASKNQFSLKLSSVTAADTAVYYCARYKEYWGQGVLVTVSS
# chain 2: DVVMTQSPLSLLITPGQPASISCRSSQSLVHSNGNTYLSWYQQKPGQPPRRLLYEVSNRDSGVPDRFSGSGAGTDFTLKISRVEAEDVGVYYCGQGTHLPYSFGQGTKVEIK
# Assays:
# Assay in all cases: fluorescence intensity of antibody binding to polysaccharide-coupled beads; higher = stronger binding
# [1] = target: pneumococcal polysaccharide Pn11F
# [2] = target: pneumococcal polysaccharide Pn12A
# [3] = target: pneumococcal polysaccharide Pn12B
# [4] = target: pneumococcal polysaccharide Pn12F
# [5] = target: pneumococcal polysaccharide Pn13
# [6] = target: pneumococcal polysaccharide Pn14
# [7] = target: pneumococcal polysaccharide Pn15A
# [8] = target: pneumococcal polysaccharide Pn15B
# [9] = target: pneumococcal polysaccharide Pn15C
# [10] = target: pneumococcal polysaccharide Pn15F
# [11] = target: pneumococcal polysaccharide Pn16A
# [12] = target: pneumococcal polysaccharide Pn16F
# [13] = target: pneumococcal polysaccharide Pn17A
# [14] = target: pneumococcal polysaccharide Pn17F
# [15] = target: pneumococcal polysaccharide Pn18A
# [16] = target: pneumococcal polysaccharide Pn18B
# [17] = target: pneumococcal polysaccharide Pn18C
# [18] = target: pneumococcal polysaccharide Pn18F
# [19] = target: pneumococcal polysaccharide Pn19A
# [20] = target: pneumococcal polysaccharide Pn19B
# [21] = target: pneumococcal polysaccharide Pn19C
# [22] = target: pneumococcal polysaccharide Pn19F
# [23] = target: pneumococcal polysaccharide Pn2
# [24] = antibody concentration 2.8593 ng/mL
# [25] = antibody concentration 15.2894 ng/mL
# [26] = antibody concentration 81.7561 ng/mL
# [27] = antibody concentration 437.17 ng/mL
# [28] = antibody concentration 2337.65 ng/mL
# [29] = antibody concentration 12500 ng/mL
# [30] = antibody concentration 0.1 ng/mL
# [31] = antibody concentration 0.534724 ng/mL
binder,measurement,setting,value
B1,fluorescence intensity,[1]; [24],13.8 MFI
same,fluorescence intensity,[1]; [25],14.8 MFI
same,fluorescence intensity,[1]; [26],13 MFI
same,fluorescence intensity,[1]; [27],15.5 MFI
same,fluorescence intensity,[1]; [28],16.5 MFI
same,fluorescence intensity,[1]; [29],19.5 MFI
same,fluorescence intensity,[2]; [30],16 MFI
same,fluorescence intensity,[2]; [31],15.5 MFI
same,fluorescence intensity,[2]; [24],15.5 MFI
same,fluorescence intensity,[2]; [25],15.5 MFI
same,fluorescence intensity,[2]; [26],15 MFI
same,fluorescence intensity,[2]; [27],15.5 MFI
same,fluorescence intensity,[2]; [28],17 MFI
same,fluorescence intensity,[2]; [29],24.5 MFI
same,fluorescence intensity,[3]; [30],14 MFI
same,fluorescence intensity,[3]; [31],15.8 MFI
same,fluorescence intensity,[3]; [24],14.5 MFI
same,fluorescence intensity,[3]; [25],15.8 MFI
same,fluorescence intensity,[3]; [26],15.5 MFI
same,fluorescence intensity,[3]; [27],16 MFI
same,fluorescence intensity,[3]; [28],16.5 MFI
same,fluorescence intensity,[3]; [29],26 MFI
same,fluorescence intensity,[4]; [30],18.5 MFI
same,fluorescence intensity,[4]; [31],19 MFI
same,fluorescence intensity,[4]; [24],18.8 MFI
same,fluorescence intensity,[4]; [25],18 MFI
same,fluorescence intensity,[4]; [26],18 MFI
same,fluorescence intensity,[4]; [27],18 MFI
same,fluorescence intensity,[4]; [28],21.5 MFI
same,fluorescence intensity,[4]; [29],32.2 MFI
same,fluorescence intensity,[5]; [30],19 MFI
same,fluorescence intensity,[5]; [31],18.5 MFI
same,fluorescence intensity,[5]; [24],19 MFI
same,fluorescence intensity,[5]; [25],19.8 MFI
same,fluorescence intensity,[5]; [26],19 MFI
same,fluorescence intensity,[5]; [27],18.8 MFI
same,fluorescence intensity,[5]; [28],19.5 MFI
same,fluorescence intensity,[5]; [29],27.5 MFI
same,fluorescence intensity,[6]; [30],14.5 MFI
same,fluorescence intensity,[6]; [31],14 MFI
same,fluorescence intensity,[6]; [24],13.5 MFI
same,fluorescence intensity,[6]; [25],13 MFI
same,fluorescence intensity,[6]; [26],14.5 MFI
same,fluorescence intensity,[6]; [27],15 MFI
same,fluorescence intensity,[6]; [28],17.8 MFI
same,fluorescence intensity,[6]; [29],61.2 MFI
same,fluorescence intensity,[7]; [30],12.5 MFI
same,fluorescence intensity,[7]; [31],12.5 MFI
same,fluorescence intensity,[7]; [24],13 MFI
same,fluorescence intensity,[7]; [25],13.5 MFI
same,fluorescence intensity,[7]; [26],12.5 MFI
same,fluorescence intensity,[7]; [27],13.5 MFI
same,fluorescence intensity,[7]; [28],13 MFI
same,fluorescence intensity,[7]; [29],15 MFI
same,fluorescence intensity,[8]; [30],18 MFI
same,fluorescence intensity,[8]; [31],17 MFI
same,fluorescence intensity,[8]; [24],17.5 MFI
same,fluorescence intensity,[8]; [25],18.8 MFI
same,fluorescence intensity,[8]; [26],18.5 MFI
same,fluorescence intensity,[8]; [27],19.8 MFI
same,fluorescence intensity,[8]; [28],20 MFI
same,fluorescence intensity,[8]; [29],26 MFI
same,fluorescence intensity,[9]; [30],16 MFI
same,fluorescence intensity,[9]; [31],18.5 MFI
same,fluorescence intensity,[9]; [24],17.2 MFI
same,fluorescence intensity,[9]; [25],18.5 MFI
same,fluorescence intensity,[9]; [26],16.5 MFI
same,fluorescence intensity,[9]; [27],17.5 MFI
same,fluorescence intensity,[9]; [28],19 MFI
same,fluorescence intensity,[9]; [29],21.5 MFI
same,fluorescence intensity,[10]; [30],17 MFI
same,fluorescence intensity,[10]; [31],16.5 MFI
same,fluorescence intensity,[10]; [24],17.5 MFI
same,fluorescence intensity,[10]; [25],17.2 MFI
same,fluorescence intensity,[10]; [26],16.5 MFI
same,fluorescence intensity,[10]; [27],18 MFI
same,fluorescence intensity,[10]; [28],17.5 MFI
same,fluorescence intensity,[10]; [29],23.8 MFI
same,fluorescence intensity,[11]; [30],13.8 MFI
same,fluorescence intensity,[11]; [31],14.5 MFI
same,fluorescence intensity,[11]; [24],14.2 MFI
same,fluorescence intensity,[11]; [25],15.5 MFI
same,fluorescence intensity,[11]; [26],13.5 MFI
same,fluorescence intensity,[11]; [27],15 MFI
same,fluorescence intensity,[11]; [28],16.5 MFI
same,fluorescence intensity,[11]; [29],20.5 MFI
same,fluorescence intensity,[12]; [30],24.5 MFI
same,fluorescence intensity,[12]; [31],23.5 MFI
same,fluorescence intensity,[12]; [24],25.5 MFI
same,fluorescence intensity,[12]; [25],23.2 MFI
same,fluorescence intensity,[12]; [26],24 MFI
same,fluorescence intensity,[12]; [27],26.5 MFI
same,fluorescence intensity,[12]; [28],28 MFI
same,fluorescence intensity,[12]; [29],33.5 MFI
same,fluorescence intensity,[13]; [30],21.5 MFI
same,fluorescence intensity,[13]; [31],20.8 MFI
same,fluorescence intensity,[13]; [24],20.5 MFI
same,fluorescence intensity,[13]; [25],22.5 MFI
same,fluorescence intensity,[13]; [26],21.8 MFI
same,fluorescence intensity,[13]; [27],22 MFI
same,fluorescence intensity,[13]; [28],21.5 MFI
same,fluorescence intensity,[13]; [29],23.5 MFI
same,fluorescence intensity,[14]; [30],26.8 MFI
same,fluorescence intensity,[14]; [31],26.5 MFI
same,fluorescence intensity,[14]; [24],26 MFI
same,fluorescence intensity,[14]; [25],26.5 MFI
same,fluorescence intensity,[14]; [26],25.5 MFI
same,fluorescence intensity,[14]; [27],27.2 MFI
same,fluorescence intensity,[14]; [28],28 MFI
same,fluorescence intensity,[14]; [29],29.5 MFI
same,fluorescence intensity,[15]; [30],24.5 MFI
same,fluorescence intensity,[15]; [31],24 MFI
same,fluorescence intensity,[15]; [24],23.5 MFI
same,fluorescence intensity,[15]; [25],23.2 MFI
same,fluorescence intensity,[15]; [26],23.5 MFI
same,fluorescence intensity,[15]; [27],24 MFI
same,fluorescence intensity,[15]; [28],24.5 MFI
same,fluorescence intensity,[15]; [29],27.5 MFI
same,fluorescence intensity,[16]; [30],30 MFI
same,fluorescence intensity,[16]; [31],31.5 MFI
same,fluorescence intensity,[16]; [24],30.5 MFI
same,fluorescence intensity,[16]; [25],31 MFI
same,fluorescence intensity,[16]; [26],30.5 MFI
same,fluorescence intensity,[16]; [27],31.5 MFI
same,fluorescence intensity,[16]; [28],34.5 MFI
same,fluorescence intensity,[16]; [29],39 MFI
same,fluorescence intensity,[17]; [30],18 MFI
same,fluorescence intensity,[17]; [31],19.5 MFI
same,fluorescence intensity,[17]; [24],17.5 MFI
same,fluorescence intensity,[17]; [25],18.5 MFI
same,fluorescence intensity,[17]; [26],19 MFI
same,fluorescence intensity,[17]; [27],18.5 MFI
same,fluorescence intensity,[17]; [28],21.8 MFI
same,fluorescence intensity,[17]; [29],32 MFI
same,fluorescence intensity,[18]; [30],22.8 MFI
same,fluorescence intensity,[18]; [31],22.5 MFI
same,fluorescence intensity,[18]; [24],24 MFI
same,fluorescence intensity,[18]; [25],22.5 MFI
same,fluorescence intensity,[18]; [26],24 MFI
same,fluorescence intensity,[18]; [27],23.5 MFI
same,fluorescence intensity,[18]; [28],27.5 MFI
same,fluorescence intensity,[18]; [29],33.5 MFI
same,fluorescence intensity,[19]; [30],18 MFI
same,fluorescence intensity,[19]; [31],18.5 MFI
same,fluorescence intensity,[19]; [24],18.2 MFI
same,fluorescence intensity,[19]; [25],18 MFI
same,fluorescence intensity,[19]; [26],19.5 MFI
same,fluorescence intensity,[19]; [27],19 MFI
same,fluorescence intensity,[19]; [28],19 MFI
same,fluorescence intensity,[19]; [29],24.5 MFI
same,fluorescence intensity,[20]; [30],28 MFI
same,fluorescence intensity,[20]; [31],30 MFI
same,fluorescence intensity,[20]; [24],29 MFI
same,fluorescence intensity,[20]; [25],28 MFI
same,fluorescence intensity,[20]; [26],30 MFI
same,fluorescence intensity,[20]; [27],31 MFI
same,fluorescence intensity,[20]; [28],36.5 MFI
same,fluorescence intensity,[20]; [29],90.2 MFI
same,fluorescence intensity,[21]; [30],26 MFI
same,fluorescence intensity,[21]; [31],25.5 MFI
same,fluorescence intensity,[21]; [24],25.8 MFI
same,fluorescence intensity,[21]; [25],26.5 MFI
same,fluorescence intensity,[21]; [26],25.8 MFI
same,fluorescence intensity,[21]; [27],26 MFI
same,fluorescence intensity,[21]; [28],28.5 MFI
same,fluorescence intensity,[21]; [29],65.5 MFI
same,fluorescence intensity,[22]; [30],24.5 MFI
same,fluorescence intensity,[22]; [31],26 MFI
same,fluorescence intensity,[22]; [24],25.5 MFI
same,fluorescence intensity,[22]; [25],24.5 MFI
same,fluorescence intensity,[22]; [26],25.8 MFI
same,fluorescence intensity,[22]; [27],26.2 MFI
same,fluorescence intensity,[22]; [28],28 MFI
same,fluorescence intensity,[22]; [29],38.5 MFI
same,fluorescence intensity,[23]; [30],20 MFI
same,fluorescence intensity,[23]; [31],19 MFI
same,fluorescence intensity,[23]; [24],20 MFI
same,fluorescence intensity,[23]; [25],20 MFI
same,fluorescence intensity,[23]; [26],20.5 MFI
same,fluorescence intensity,[23]; [27],18.8 MFI

# Some of the entries so far, as tab-separated lines:
binder	measurement	setting	value
B1	fluorescence intensity	[11]; [27]	15 MFI
same	fluorescence intensity	[11]; [28]	16.5 MFI
same	fluorescence intensity	[11]; [29]	20.5 MFI

# Given with bars between the fields: part of the list above
binder | measurement | setting | value
B1 | fluorescence intensity | [20]; [30] | 28 MFI
same | fluorescence intensity | [20]; [31] | 30 MFI

# 2 entries picked at random from the list so far, as already listed:
binder,measurement,setting,value
B1,fluorescence intensity,[21]; [24],25.8 MFI
same,fluorescence intensity,[21]; [28],28.5 MFI
